# Binding screen against folded nucleic acids

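Compounds were printed on reactive glass slides in duplicate spots, a dye-labelled oligonucleotide was laid over them, and the fluorescence left after washing was read. For the PreQ1, TPP and SAM-II riboswitches the laboratory earlier reported (doi:10.1038/s41467-019-09493-3) 1 µM RNA, 2 h, and a rule that included a mean Z-score above 3 (spot signal-to-noise against the whole library), a score well above that on a control array, and duplicate spots agreeing (coefficient of variation under 100). The data file gives only the calls; its cut-offs may differ, and compounds hitting several targets are kept. These are primary screening calls, not affinities; a compound without a hit may have attached poorly or may still bind in solution.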 Key: active = hit, inactive = tested without a hit. The compounds are a random part of those screened. A dash means that no call is listed here.

Targets (5′ to 3′):
TPP: TPP riboswitch RNA three-way junction, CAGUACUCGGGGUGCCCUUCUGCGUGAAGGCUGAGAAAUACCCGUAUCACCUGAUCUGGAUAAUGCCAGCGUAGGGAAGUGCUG. About 24,000 compounds screened, about 160 hits.
PreQ1: PreQ1 riboswitch RNA pseudoknot, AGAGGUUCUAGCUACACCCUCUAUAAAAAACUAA. From B. subtilis. About 24,000 compounds screened, about 170 hits.
SAM-II: SAM-II riboswitch RNA pseudoknot, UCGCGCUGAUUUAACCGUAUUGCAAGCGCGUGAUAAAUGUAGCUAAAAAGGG. About 21,000 compounds screened, about 200 hits.

Compound,TPP,PreQ1,SAM-II
COc1cccc2c1OCC(CNC(=O)[C@H]1CC[C@@H](O)CC1)C2 (some centres not stated),inactive,inactive,inactive
N#Cc1cnn2c(NC3CCCC3)c(-c3cccc(Br)c3)[nH]c12,inactive,inactive,-
Cn1c(=O)[nH]c(=O)c2c1nc(N1CCCCC1)n2CC(O)COc1c(Br)cc(Br)cc1Br (configuration not stated),inactive,inactive,inactive
CCCN1C(=O)c2ccccc2NC1c1ccc(OC)c(COc2ccc([N+](=O)[O-])c(C)c2)c1 (configuration not stated),inactive,inactive,inactive
N#CC1=C(N)OC2=C(CN(Cc3ccccc3)CC2=Cc2ccsc2)C1c1ccsc1 (configuration not stated),inactive,inactive,inactive
COC(=O)C1=C(N)OC2=C(C(=O)CC(C)(C)C2)C12C(=O)Nc1ccccc12 (configuration not stated),inactive,inactive,inactive
Cl.N=C(N)NCCCS(=O)(=O)Nc1ccc(Nc2c3ccccc3nc3cc([N+](=O)[O-])ccc23)cc1,inactive,inactive,inactive
CCC[C@H]1CN(c2nccc(C(F)(F)F)n2)C[C@@H]1N,inactive,inactive,inactive
OCCC1CN(c2ncnc3c2CCNCC3)CCO1 (configuration not stated),inactive,inactive,inactive
Cc1ccccc1SCC(=O)N1C[C@@H](CN2CCCN(C)CC2)[C@@H](CO)C1,inactive,inactive,inactive
CCOC(=O)c1cnc2c(OC)cccc2c1Nc1cccc(O)c1,inactive,inactive,inactive
O=C(c1cc(=O)[nH]c2ccc(F)cc12)N1CC[C@@H](N2CCOCC2)[C@H](O)C1,inactive,inactive,inactive
CSc1ccc(-c2nc(CN3CCCNCC3)c(C)o2)cc1,inactive,inactive,inactive
CCCCCCCCCCCCCC(=O)N[C@H](CO)[C@H](O)c1ccc([N+](=O)[O-])cc1,inactive,inactive,inactive
CC(=O)NC1(C(=O)O)CCCC1,inactive,inactive,inactive
CCc1ccc(C(=O)N2CCN(CC3CCC3)CC(O)C2)[nH]1 (configuration not stated),inactive,inactive,inactive
CC(NCc1ccc([N+](=O)[O-])cc1)c1ccccc1.Cl (configuration not stated),inactive,inactive,inactive
O=C(c1ccccc1)N1CCN(Cc2cccc(OCCO)c2)CC1,inactive,inactive,inactive
CNc1nc(C)c(C(=O)N2CCC(C(O)CCc3ccccc3)CC2)s1 (configuration not stated),inactive,inactive,inactive
OC(COc1ccccc1Cl)Cn1c2ccccc2c2ccccc21 (configuration not stated),inactive,inactive,inactive
CCOc1ccccc1-n1nnc(-c2nc(-c3cccnc3)no2)c1N,inactive,inactive,-
Cc1c(NCc2ccccn2)cccc1C(=O)N1Cc2ccccc2C1,inactive,inactive,inactive
CN(C)CCNc1oc(-c2ccc(F)cc2)nc1C#N,inactive,inactive,inactive
COC(=O)c1cccc(Nc2c(-c3cccc(Cl)c3)nc3cnccn23)c1,inactive,inactive,-
Nc1nc(-c2ccccc2)cc(-c2ccc(Cl)cc2)n1,inactive,inactive,-
Cc1ccc(S(=O)(=O)Nc2ccccc2CNc2cccc(C)c2C)cc1,inactive,inactive,inactive
CN1CCN(C(=O)c2cc(N3CCCCC3)ccc2N)CC1,inactive,inactive,-
C=CCOc1c(Cl)cc(CNCC(C)n2cncn2)cc1Cl (configuration not stated),inactive,inactive,inactive
Cc1nc(N)sc1-c1csc(NN=Cc2cccnc2)n1,inactive,inactive,inactive
Nc1ccc(C(=O)c2ccc(C(=O)O)c(C(=O)O)c2)cc1,inactive,inactive,inactive
CC1CCN(C(=O)c2cccc(NC(=O)N[C@@H](CO)c3ccccc3)c2)CC1,inactive,inactive,inactive
NC1CCN(CC(=O)O)CC1,inactive,inactive,inactive
Cn1c(-c2ccc(F)cc2)cnc1NCc1cc(Br)ccc1F,inactive,inactive,inactive
COc1ccccc1C1CCN(c2nc(N)nc(C)c2CCC(=O)O)CC1,inactive,inactive,inactive
COc1ccc(CNCC2(O)CCOC(C)(C)C2)cc1 (configuration not stated),inactive,inactive,inactive
COc1cccc2c1OCC(C(=O)NCCc1nnc(N)s1)C2 (configuration not stated),inactive,inactive,inactive
CCc1ccc(Nc2nc(N)nc(CSc3nc(C)cc(C)n3)n2)cc1,inactive,inactive,inactive
Cc1c(CCOc2ccc(C(=O)O)cc2)c2cc(Cl)ccc2n1C(c1ccccc1)c1ccccc1,inactive,inactive,inactive
CCOC(=O)CN1C(=O)C(O)(CC(=O)c2cccc(N)c2)c2ccccc21 (configuration not stated),inactive,inactive,inactive
O=c1[nH]c(=S)c2[nH]c(=S)n(-c3ccccc3)c2[nH]1,inactive,inactive,inactive
CCOC(=O)c1cnn2c(N)c(C#N)cnc12,inactive,inactive,inactive
COc1ccc2oc(C(O)c3c(C)oc4ccc(OC)cc34)cc2c1 (configuration not stated),inactive,inactive,inactive
Cc1ccc(CNCc2c(C(=O)O)[nH]c3ccccc23)cc1,inactive,inactive,-
N[C@H]1CC[C@@H](n2cc(C(=O)NC(Cn3ccnc3)c3ccccc3)nn2)CC1 (some centres not stated),inactive,inactive,inactive
Nc1c(C(=O)c2ccccc2)sc2nc3c(cc12)C(=O)CCC3,inactive,inactive,inactive
COc1ccc(CN2CCN(C(=O)C(O)CCSC)CC2=O)cc1 (configuration not stated),inactive,inactive,inactive
CCCn1cc(C(=O)N(Cc2ccccn2)C(CC)CO)c(C)n1 (configuration not stated),inactive,inactive,inactive
CCc1nc2c(c(NCc3nc(-c4ncccn4)no3)n1)CCNCC2,inactive,inactive,inactive
c1ccc(-c2noc(-c3cccnc3NC3CCCC3)n2)cc1,inactive,inactive,-
CCN(CC)c1ccc(/C=C/c2cc(-c3ccccc3)c3ccccc3n2)cc1,inactive,inactive,inactive
COc1cc2c(cc1OC)CN(CCc1ccc(NC(=O)c3cccc4c(=O)c5cccc(OC)c5[nH]c34)cc1)CC2,inactive,inactive,inactive
COC(=O)C1=C(C)NC(C)=C(C(=O)OCCCN2CCC(c3ccccc3)(c3ccccc3)CC2)C1c1cccc([N+](=O)[O-])c1 (configuration not stated),inactive,inactive,inactive
COCCC1(CO)CCCN(Cc2ccc(OC3CCCC3)cc2)C1 (configuration not stated),inactive,inactive,inactive
Cn1c(=O)c2c(nc(CN3CCCCC3)n2CCCO)n(C)c1=O,inactive,inactive,inactive
Cc1c(Cl)cccc1NC1CCN(C(=O)CC(C)C)CC1.O=C(O)C(F)(F)F,inactive,inactive,inactive

7 of the entries, repeated:

| Compound | TPP | PreQ1 | SAM-II |
|---|---|---|---|
| `Cc1c(CCOc2ccc(C(=O)O)cc2)c2cc(Cl)ccc2n1C(c1ccccc1)c1ccccc1` | inactive | inactive | inactive |
| `COc1cccc2c1OCC(C(=O)NCCc1nnc(N)s1)C2` (configuration not stated) | inactive | inactive | inactive |
| `COC(=O)c1cccc(Nc2c(-c3cccc(Cl)c3)nc3cnccn23)c1` | inactive | inactive | - |
| `COCCC1(CO)CCCN(Cc2ccc(OC3CCCC3)cc2)C1` (configuration not stated) | inactive | inactive | inactive |
| `COc1ccc2oc(C(O)c3c(C)oc4ccc(OC)cc34)cc2c1` (configuration not stated) | inactive | inactive | inactive |
| `OC(COc1ccccc1Cl)Cn1c2ccccc2c2ccccc21` (configuration not stated) | inactive | inactive | inactive |
| `COc1cc2c(cc1OC)CN(CCc1ccc(NC(=O)c3cccc4c(=O)c5cccc(OC)c5[nH]c34)cc1)CC2` | inactive | inactive | inactive |

Data from the ROBIN nucleic acid binder screens, doi:10.1002/anie.202211358.